Some entries share one result that the patent states for a list of compounds.
System: rat brain homogenate
Test: Peroxidation-inhibiting test of rat brain lipids (rat brain homogenate, TBA method)
Type: biochemical
Procedure: The lipid peroxidation-inhibiting assay with rat brain homogenate is an experimental system for evaluating damages of biological system caused by the generation of ROS (Reactive Oxygen Species). It is because the rat brain is an organ that is easily oxidized by ROS. Using this system, we evaluated antioxidative activity of compounds 1-5.
Using rat brain homogenate, we examined lipid peroxidation-inhibiting activities of the test compounds. It was performed by incubating rat brain homogenate to proceed with lipid peroxidation reactions, with each compound and with no compound (as the control), by measuring the amounts of consequently generated malondialdehyde by absorbance at 532 nm in the TBA method, and by comparing the amounts of the malondialdehyde products between them.
We preincubated IWAKI disposable test tube ([…]×100 mm) that contained 0.6 mL of 100 mM phosphate buffer (pH 7.4), 0.05 mL of each test sample-including solution, 0.1 mL of 1 mM ascorbic acid, and 0.05 mL of distilled water at 37° C. for 5 min. And 0.2 mL of 2.5% (w/v) rat brain homogenate was added to the test tube, and incubated for 1 hour at 37° C. with shaking (150 rpm). Then, 1 mL of 0.2 N HCl solution including 20% (W/V) trichloroacetic acid and 0.5% (W/V) 2-thiobarbituric acid was added to the above test tube to stop the reaction. Next, this test tube containing each reaction solution was boiled for 30 min at 100° C. to produce color. After chilled on ice, each solution from the test tube was centrifuged with 3,000 rpm for 10 min, and the absorbance of each supernatant was measured at 532 nm (A532).
The lipid peroxidation-inhibiting ratio (%) of each extracted solution (containing each flavonoid glycoside as a test compound (T)) was calculated using the following Formula 1. (1−[T−B]/[C−B])′100. Formula 1
T (test), C (control), and B (blank) are A532 of a test compound with the rat brain homogenate, the control (no compound (instead ethanol) with the homogenate), and the blank control (no compound (instead ethanol) without the homogenate (instead phosphate buffer)), respectively. The lipid peroxidation-inhibiting activity was determined as the IC50 value, representing the concentration at which 50% inhibition was observed.
(Peroxidation-Inhibiting Test of Rat Brain Lipids)

SMILES	lipid peroxidation-inhibiting activity (in words)
O=C(/C=C/c1ccc(O)c(O)c1)Oc1cc(-c2oc3cc(O)cc(O)c3c(=O)c2O[C@@H]2OC(CO)[C@@H](O)[C@H](O)C2O[C@@H]2OC(CO)[C@@H](O)[C@H](O)C2O)ccc1O (some centres unmarked) [Compound 4]	retain the lipid peroxidation-inhibiting activity
CC1OC(Oc2cc(O)c3c(=O)c(O[C@@H]4OC(CO)[C@@H](O)C(O)C4O[C@@H]4OC(CO)[C@@H](O)C(O)C4O)c(-c4ccc(OC(=O)/C=C/c5ccc(O)c(O)c5)cc4)oc3c2)C(O)C(O)C1O (some centres unmarked) [Compound 2]	retain the lipid peroxidation-inhibiting activity
CC1OC(Oc2c(-c3ccc(O)c(OC(=O)/C=C/c4ccc(O)c(O)c4)c3)oc3cc(O[C@@H]4OC(CO)[C@@H](O)[C@H](O)C4O)cc(O)c3c2=O)C(O[C@@H]2OC(CO)[C@@H](O)[C@H](O)C2O)C(O)C1O (some centres unmarked) [Compound 5]	retain the lipid peroxidation-inhibiting activity
CC1OC(Oc2cc(O)c3c(=O)c(OC4OC(C)C(O)C(O)C4O[C@@H]4OC(CO)[C@@H](O)[C@H](O)C4O)c(-c4ccc(O)c(OC(=O)/C=C/c5ccc(O)c(O)c5)c4)oc3c2)C(O)C(O)C1O (some centres unmarked) [Compound 3]	retain the lipid peroxidation-inhibiting activity
CC1OC(Oc2cc(O)c3c(=O)c(O[C@@H]4OC(CO)[C@@H](O)C(O)C4O[C@@H]4OC(CO)[C@@H](O)C(O)C4O)c(-c4ccc(O)c(OC(=O)/C=C/c5ccc(O)c(O)c5)c4)oc3c2)C(O)C(O)C1O (some centres unmarked) [Compound 1]	retain the lipid peroxidation-inhibiting activity
